In article PMC5015840 one finds binding data, which are given here for one molecule.

These are yes or no findings as the source states them, for the method shown. Binding seen in cells or lysates may run through a third protein. Binding can be weak; no strength is given. Where a sequence is shown, tags or fusion partners need not be part of it.

The target in this experiment is OsIAA10, luciferase-fragment fusion of the LCI assay (rice). The experiment in a line: split reporter; firefly luciferase complementation imaging (LCI) in N. benthamiana leaves, 3 days after agroinfiltration, 0.2 mM luciferin.

B1: RDV P2, luciferase-fragment fusion of the LCI assay (protein, UniProt Q18MZ3 1-1116)
chain: MAYPNDVRNVWDVYNVFRDVPNREHLIRDIRNGLVTVRNLTNMLTNMERDDQLIIAQLSNMMKSLSIGVEKAQNELSKLKTTDADRAAVLAAYQTSVLNIERNTMLLTGYFKQLVLDLTGYVGASVYPILPFMITGDQSMMVDSIKINMKNVFDDKHEQEIVLPIHPACFVSTITEDTSSVVYADGDELYSVHVRHATMTMYVNVLGETVETRQLSMIGDSIVPDDFAPSLLILRFSQDSVGEVFYLSHDNMKKFLGYGLEYTDKYSIFDVTRRVSTTRNKIPDGFCSVDGVPYLDGWFIYQPSGISADSNICAIYNSYVLDTLRYITECEVDTLRSVYDQTSSTAFSKTDVLTSSLLTMQSNISALSAATPQLANDVITFDSTDLLSLGTVLTVSNEFTADDTILSTSLAGHCQVDYSEGSPQDKSMSISVSCDSSQLASSTVHSYSADILGHGLKGDRNMNLMINVPGLMNPQKVTVDYVYSDGYKLNFASVVAPGAPFWINATLQLSVSPSAHNMLSKLTPLDNDACPGLKAQANTPVLVSMTINLDDATPALGGEVIQNCVFKIHHGDDVYSFVTDFDVISYTSTSGTNCLKLISSVDITSQLPSDMVIYVMNGSPDAAFISGDSVNMSSVDWHQSTSQTVGNYVYTTMKAYWNVTSYDVEARPYTTYVPGKVNFTAVEHADVFVDDYNTGVNSYVIVNSRIYYKGTPLYIEVPSGSFIKVSYFTSPLKNPTVDTYNAEISRNSAYLIKANASLDSVAAMLNNISNRIDAMERLMEPTRAQQIAGVVSSIGGVISLGMPLLGAIVVTIGTIISIADPDKQGIDYHSVANAFMSWCQYAAVCRYEYGLLKRGDEKLDVLSFMPKRVVSDFKNKPDVISLPELGESVLRGSSTDYLDTGINIIYNDMQLLGQGKLSDWLNKTVSKVENNAANFFERNLDKSLANKEVLPMHARVEITQTEKIGDVYRTTILYTGINEGSYLGGDVFASRLGDKNILRMNGFESGPGRFKAIVESTTEVGNFRVVDWTVSGMSRYEIYAAAGEVYPSKDPSHADVQLLYESIVRDLTTRDGSFVLKHHDVLLLPGQLDAFEELIIKNASNYQYAFIGSNCSKLCA
Take B1: the binding entry was “binds”.
